Values of other authors as cited in patent US20100222289A1, “METHODS FOR DIAGNOSIS AND TREATMENT OF CHRONIC FATIGUE SYNDROME” (CFS Research LLC, priority 2007, published 2010).
Some of these results come from one statement about several compounds together.

Conditions: in vivo; cited from earlier work

For `Nc1nc2c(ncn2CCC(CO)CO)c(=O)[nH]1` [penciclovir], the “T ½” value is listed as 1.5 to 6 h.
